Our source for the binding values is publication PMC2677661.

Chains of the proteins cited; added tags and fusions are not shown.
UniProt Q01094: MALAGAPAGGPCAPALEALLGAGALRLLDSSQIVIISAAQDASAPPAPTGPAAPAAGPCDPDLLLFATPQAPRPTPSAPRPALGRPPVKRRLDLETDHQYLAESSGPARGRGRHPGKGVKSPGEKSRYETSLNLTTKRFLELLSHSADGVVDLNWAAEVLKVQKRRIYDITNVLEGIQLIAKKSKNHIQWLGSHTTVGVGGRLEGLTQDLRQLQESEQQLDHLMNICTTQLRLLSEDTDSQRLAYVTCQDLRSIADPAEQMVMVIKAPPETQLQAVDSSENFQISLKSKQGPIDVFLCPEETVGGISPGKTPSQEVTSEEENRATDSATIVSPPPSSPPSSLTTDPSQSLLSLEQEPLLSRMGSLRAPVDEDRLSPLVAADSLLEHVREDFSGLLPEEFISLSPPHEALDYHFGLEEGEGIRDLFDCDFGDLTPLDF

This experiment deals with GST-E2F1 (UniProt Q01094). As to the kind of experiment: pull-down; GST-E2F1 loaded on glutathione-Sepharose 4b beads; 20 µl 35S-labelled in vitro translated DRIL1, unmodified or sumoylated (mixture of unsumoylated and monosumoylated); 2 hours at 4°C; 50 mM Tris pH 7.5, 150 mM NaCl, 0.1% Nonidet P-40, 1 mM DTT, 20 mM NEM; autoradiography, quantified by ImageJ; only the target purified.

Results are given in words; binding and its absence hold for the method and conditions named. Binding seen in cells or lysates may run through a third protein. Some entries that bind do so weakly or less than the wild type.

B1: DRIL1 (E2FBP1/ARID3A/DRIL1), wild type, unsumoylated (protein, UniProt Q99856 1-593)
chain: MKLQAVMETLLQRQQRARQELEARQQLPPDPPAAPPGRARAAPDEDREPESARMQRAQMAALAAMRAAAAGLGHPASPGGSEDGPPGSEEEDAAREGTPGSPGRGREGPGEEHFEDMASDEDMKPKWEEEEMEEDLGEDEEEEEEDYEDEEEEEDEEGLGPPGPASLGTTALFPRKAQPPQAFRGDGVPRVLGGQERPGPGPAHPGGAAHVAPQLQPPDHGDWTYEEQFKQLYELDGDPKRKEFLDDLFSFMQKRGTPVNRIPIMAKQVLDLFMLYVLVTEKGGLVEVINKKLWREITKGLNLPTSITSAAFTLRTQYMKYLYPYECEKRGLSNPNELQAAIDSNRREGRRQSFGGSLFAYSPGGAHGMLSSPKLPVSSLGLAASTNGSSITPAPKIKKEEDSAIPITVPGRLPVSLAGHPVVAAQAAAVQAAAAQAAVAAQAAALEQLREKLESAEPPEKKMALVADEQQRLMQRALQQNFLAMAAQLPMSIRINSQASESRQDSAVNLTGTNGSNSISMSVEINGIMYTGVLFAQPPAPTPTSAPNKGGGGGGGSSSNAGGRGGNTGTSGGQAGPAGLSTPSTSTSNNSLP
modifications: 35S-methionine label
Consider B1, for which the binding result is on record as “binds”.
